Laboratory results from the supplement of paper PMC10849652.
The other results are listed elsewhere or left out.

Chains of the proteins cited; added tags and fusions are not shown. Lines headed by an entry give the natural chain unless they say otherwise; changes in a name come on top.
UniProt P55263: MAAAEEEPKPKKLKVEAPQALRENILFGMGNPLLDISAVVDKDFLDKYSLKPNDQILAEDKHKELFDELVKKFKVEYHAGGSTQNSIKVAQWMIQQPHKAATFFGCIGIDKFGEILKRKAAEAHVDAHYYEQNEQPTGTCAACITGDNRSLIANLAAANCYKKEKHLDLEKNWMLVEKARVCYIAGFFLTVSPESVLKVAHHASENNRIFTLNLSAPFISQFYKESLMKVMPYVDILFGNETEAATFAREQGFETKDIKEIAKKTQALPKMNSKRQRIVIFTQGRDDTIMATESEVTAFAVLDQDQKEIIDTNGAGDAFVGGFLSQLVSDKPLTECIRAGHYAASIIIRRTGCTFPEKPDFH
UniProt P55196: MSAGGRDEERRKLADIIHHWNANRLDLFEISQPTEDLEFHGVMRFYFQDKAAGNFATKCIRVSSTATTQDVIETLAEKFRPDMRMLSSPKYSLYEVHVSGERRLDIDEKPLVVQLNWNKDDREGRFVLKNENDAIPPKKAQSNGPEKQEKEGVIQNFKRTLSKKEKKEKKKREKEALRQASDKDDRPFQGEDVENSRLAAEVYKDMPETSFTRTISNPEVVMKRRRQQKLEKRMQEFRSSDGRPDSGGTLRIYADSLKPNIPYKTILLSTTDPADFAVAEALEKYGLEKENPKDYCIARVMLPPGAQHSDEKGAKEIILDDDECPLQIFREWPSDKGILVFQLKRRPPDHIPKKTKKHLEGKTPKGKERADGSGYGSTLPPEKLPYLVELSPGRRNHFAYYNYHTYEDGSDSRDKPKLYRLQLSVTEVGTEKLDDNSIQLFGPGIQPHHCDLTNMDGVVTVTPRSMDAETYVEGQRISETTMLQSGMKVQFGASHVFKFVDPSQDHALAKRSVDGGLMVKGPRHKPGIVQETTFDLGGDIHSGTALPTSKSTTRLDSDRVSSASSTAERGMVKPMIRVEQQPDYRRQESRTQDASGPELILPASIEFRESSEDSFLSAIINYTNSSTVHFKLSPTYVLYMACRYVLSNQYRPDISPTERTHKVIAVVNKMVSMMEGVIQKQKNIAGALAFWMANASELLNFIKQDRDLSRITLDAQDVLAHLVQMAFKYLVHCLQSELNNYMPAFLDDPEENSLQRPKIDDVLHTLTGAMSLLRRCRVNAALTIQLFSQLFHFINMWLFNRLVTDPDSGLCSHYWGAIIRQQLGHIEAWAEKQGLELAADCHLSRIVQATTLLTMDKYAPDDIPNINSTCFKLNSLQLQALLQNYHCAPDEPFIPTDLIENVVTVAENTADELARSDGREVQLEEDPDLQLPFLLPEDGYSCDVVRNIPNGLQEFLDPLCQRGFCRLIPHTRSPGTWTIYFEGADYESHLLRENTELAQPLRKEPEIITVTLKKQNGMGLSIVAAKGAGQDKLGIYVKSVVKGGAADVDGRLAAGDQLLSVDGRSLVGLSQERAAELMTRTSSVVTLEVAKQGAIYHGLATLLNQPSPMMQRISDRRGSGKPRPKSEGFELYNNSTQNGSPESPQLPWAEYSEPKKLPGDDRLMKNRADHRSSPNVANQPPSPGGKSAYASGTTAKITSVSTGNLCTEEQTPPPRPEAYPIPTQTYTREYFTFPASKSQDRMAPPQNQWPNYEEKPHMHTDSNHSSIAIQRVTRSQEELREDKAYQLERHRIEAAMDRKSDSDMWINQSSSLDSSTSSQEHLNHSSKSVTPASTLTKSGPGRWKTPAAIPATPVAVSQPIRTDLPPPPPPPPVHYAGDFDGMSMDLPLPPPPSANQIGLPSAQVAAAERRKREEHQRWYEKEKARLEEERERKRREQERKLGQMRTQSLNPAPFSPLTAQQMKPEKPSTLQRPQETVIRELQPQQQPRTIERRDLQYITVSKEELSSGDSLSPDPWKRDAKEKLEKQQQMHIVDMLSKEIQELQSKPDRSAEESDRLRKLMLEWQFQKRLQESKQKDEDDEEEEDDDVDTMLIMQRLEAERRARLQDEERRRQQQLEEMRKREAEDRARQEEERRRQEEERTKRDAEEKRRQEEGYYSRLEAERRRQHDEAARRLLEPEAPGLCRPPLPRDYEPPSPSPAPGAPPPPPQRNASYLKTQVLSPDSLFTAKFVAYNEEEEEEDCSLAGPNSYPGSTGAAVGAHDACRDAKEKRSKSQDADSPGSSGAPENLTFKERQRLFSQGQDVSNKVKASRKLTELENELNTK
UniProt P11766: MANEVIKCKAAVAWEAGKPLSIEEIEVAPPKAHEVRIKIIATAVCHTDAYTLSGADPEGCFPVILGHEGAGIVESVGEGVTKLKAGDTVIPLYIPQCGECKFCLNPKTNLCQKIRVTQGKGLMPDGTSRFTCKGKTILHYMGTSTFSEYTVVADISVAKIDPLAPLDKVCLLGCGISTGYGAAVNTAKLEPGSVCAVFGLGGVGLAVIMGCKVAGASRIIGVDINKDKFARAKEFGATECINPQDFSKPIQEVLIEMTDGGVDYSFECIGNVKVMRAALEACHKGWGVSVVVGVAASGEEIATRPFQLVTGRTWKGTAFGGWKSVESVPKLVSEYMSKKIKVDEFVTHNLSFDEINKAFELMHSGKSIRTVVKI
UniProt Q9UHB7: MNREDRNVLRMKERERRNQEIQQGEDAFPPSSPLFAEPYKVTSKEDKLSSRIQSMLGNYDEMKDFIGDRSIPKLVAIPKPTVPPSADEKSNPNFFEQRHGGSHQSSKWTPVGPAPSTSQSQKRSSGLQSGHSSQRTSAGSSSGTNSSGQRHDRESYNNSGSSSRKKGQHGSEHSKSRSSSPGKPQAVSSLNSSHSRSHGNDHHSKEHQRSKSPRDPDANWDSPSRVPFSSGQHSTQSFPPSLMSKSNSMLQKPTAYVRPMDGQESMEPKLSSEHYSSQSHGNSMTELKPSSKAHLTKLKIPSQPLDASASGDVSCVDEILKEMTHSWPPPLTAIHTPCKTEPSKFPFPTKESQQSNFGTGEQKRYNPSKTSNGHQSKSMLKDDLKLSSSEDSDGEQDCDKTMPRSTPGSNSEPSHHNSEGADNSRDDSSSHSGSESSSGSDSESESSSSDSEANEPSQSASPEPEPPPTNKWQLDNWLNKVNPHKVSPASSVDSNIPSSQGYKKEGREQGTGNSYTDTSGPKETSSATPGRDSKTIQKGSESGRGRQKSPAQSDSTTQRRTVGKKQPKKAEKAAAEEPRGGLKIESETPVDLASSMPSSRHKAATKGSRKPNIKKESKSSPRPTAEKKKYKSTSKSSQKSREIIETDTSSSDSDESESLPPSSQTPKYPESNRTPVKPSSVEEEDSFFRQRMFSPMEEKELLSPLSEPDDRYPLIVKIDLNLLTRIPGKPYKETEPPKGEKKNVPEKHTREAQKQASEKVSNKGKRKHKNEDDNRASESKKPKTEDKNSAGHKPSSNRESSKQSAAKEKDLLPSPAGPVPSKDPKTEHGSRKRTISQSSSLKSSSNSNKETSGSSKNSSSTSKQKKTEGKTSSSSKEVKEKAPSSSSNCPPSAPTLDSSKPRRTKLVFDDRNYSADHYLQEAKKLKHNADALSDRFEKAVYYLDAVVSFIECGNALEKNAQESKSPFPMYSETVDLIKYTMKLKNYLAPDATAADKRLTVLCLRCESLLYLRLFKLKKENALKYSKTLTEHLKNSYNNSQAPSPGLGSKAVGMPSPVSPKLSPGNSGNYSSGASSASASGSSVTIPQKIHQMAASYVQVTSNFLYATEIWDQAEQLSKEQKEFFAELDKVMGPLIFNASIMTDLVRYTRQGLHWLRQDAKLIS
UniProt P17707: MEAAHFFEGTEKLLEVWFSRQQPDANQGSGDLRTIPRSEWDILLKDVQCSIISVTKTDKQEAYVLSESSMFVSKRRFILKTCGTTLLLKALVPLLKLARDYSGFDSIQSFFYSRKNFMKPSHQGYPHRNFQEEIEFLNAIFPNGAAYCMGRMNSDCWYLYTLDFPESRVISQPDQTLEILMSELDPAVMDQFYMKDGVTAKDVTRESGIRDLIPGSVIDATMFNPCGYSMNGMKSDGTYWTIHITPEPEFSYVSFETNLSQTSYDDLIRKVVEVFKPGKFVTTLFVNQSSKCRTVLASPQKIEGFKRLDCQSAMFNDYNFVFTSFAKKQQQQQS
UniProt P49419: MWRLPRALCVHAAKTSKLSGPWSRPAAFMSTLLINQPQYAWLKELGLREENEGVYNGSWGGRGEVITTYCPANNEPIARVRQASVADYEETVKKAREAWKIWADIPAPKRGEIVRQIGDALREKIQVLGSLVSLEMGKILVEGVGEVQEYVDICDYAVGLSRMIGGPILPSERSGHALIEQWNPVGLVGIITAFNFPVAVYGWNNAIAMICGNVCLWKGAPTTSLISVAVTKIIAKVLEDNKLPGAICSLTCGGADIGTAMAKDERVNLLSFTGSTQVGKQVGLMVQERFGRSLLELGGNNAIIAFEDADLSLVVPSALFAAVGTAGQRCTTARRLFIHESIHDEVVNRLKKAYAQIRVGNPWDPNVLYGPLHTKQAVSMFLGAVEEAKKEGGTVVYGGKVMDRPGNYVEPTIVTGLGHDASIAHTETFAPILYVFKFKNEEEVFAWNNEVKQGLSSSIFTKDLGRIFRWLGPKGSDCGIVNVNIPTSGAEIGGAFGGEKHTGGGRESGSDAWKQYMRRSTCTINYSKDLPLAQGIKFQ
UniProt Q86W34: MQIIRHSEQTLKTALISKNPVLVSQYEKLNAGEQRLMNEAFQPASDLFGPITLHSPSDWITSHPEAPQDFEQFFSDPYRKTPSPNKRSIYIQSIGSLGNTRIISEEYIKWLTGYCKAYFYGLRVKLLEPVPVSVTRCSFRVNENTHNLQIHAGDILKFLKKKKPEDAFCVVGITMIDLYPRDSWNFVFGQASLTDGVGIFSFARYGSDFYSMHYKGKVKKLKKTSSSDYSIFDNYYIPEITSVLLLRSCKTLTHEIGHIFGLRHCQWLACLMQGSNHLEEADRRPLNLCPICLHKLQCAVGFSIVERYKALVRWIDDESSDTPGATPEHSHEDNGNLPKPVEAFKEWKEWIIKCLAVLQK
UniProt O60266: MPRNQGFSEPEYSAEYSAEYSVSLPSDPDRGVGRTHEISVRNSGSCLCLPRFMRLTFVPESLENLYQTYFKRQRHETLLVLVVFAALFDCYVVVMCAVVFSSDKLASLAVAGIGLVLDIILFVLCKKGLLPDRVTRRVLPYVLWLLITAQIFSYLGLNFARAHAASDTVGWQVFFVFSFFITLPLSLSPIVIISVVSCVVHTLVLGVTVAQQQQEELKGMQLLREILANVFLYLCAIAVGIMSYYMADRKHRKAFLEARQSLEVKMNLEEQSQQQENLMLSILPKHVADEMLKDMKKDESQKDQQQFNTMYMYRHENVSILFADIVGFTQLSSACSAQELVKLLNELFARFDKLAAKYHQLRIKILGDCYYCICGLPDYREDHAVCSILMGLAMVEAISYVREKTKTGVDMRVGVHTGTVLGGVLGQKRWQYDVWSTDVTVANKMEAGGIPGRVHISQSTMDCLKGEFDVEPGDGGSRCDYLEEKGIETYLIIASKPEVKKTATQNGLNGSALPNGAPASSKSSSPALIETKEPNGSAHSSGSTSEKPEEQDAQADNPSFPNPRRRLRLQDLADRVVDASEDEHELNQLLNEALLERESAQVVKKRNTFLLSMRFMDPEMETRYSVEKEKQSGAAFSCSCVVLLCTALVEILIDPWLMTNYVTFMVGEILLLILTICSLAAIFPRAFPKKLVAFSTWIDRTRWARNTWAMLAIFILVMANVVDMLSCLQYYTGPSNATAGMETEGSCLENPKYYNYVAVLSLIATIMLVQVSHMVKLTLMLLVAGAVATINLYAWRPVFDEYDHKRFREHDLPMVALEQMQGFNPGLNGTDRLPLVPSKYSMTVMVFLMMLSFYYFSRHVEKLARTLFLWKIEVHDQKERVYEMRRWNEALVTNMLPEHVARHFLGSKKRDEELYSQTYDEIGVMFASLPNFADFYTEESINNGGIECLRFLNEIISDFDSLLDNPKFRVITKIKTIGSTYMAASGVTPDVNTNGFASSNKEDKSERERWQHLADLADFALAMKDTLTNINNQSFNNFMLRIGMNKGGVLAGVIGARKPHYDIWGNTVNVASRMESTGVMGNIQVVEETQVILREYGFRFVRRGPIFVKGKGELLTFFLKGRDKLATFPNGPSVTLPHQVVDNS
UniProt P49189: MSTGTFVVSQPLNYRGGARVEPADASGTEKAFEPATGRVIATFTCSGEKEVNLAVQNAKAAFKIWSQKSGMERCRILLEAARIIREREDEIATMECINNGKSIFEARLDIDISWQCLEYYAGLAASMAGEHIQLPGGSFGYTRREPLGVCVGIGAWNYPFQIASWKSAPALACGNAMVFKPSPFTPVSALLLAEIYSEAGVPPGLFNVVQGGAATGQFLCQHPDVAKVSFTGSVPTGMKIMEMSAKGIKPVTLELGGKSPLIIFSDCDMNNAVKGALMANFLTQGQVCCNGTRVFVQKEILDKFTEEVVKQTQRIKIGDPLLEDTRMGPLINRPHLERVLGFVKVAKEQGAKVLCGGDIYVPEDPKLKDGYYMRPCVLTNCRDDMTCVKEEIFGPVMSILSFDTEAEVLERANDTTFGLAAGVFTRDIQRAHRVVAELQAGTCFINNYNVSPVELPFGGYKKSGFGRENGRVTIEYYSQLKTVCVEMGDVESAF

Legend:
Assay in all cases: log2 fold change, soluble protein after heating vs DMSO (PISA); higher = thermal stabilisation; K562 cells, 10 uM, 30 min; active = over 0.2 and 3.5 SD of the protein, either way, in both replicates (recomputed)
[1] = compound: CS(=O)(=O)c1ccc(-c2cnc(N)c(C(=O)Nc3ccccc3)n2)cc1
Summary of the method: (§1)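 Values are thermal stability changes relative to control samples and are taken from duplicates. They are stated as log2 fold changes. Before quantification by TMTpro 16plex LC-MS/MS with equalised channel sums, K562 cells at 2×10^6 cells/mL were treated with 10 μM compound for 30 min, heated in aliquots for 3 min across 48°C-58°C, pooled, extracted in PBS with 0.5% NP-40 at 4°C, and centrifuged at 21,000xg for 90 min to give the soluble supernatant.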

crizotinib = compound: C[C@@H](Oc1cc(-c2cnn(C3CCNCC3)c2)cnc1N)c1c(Cl)ccc(F)c1Cl [crizotinib]
Summary of the method: as §1

[2] = compound: C[C@@H]1COCCN1C2=NC(=NC(=C2)C3(CC3)S(=O)(=O)C)C4=C5C=CNC5=CC=C4
Summary of the method: as §1

[3] = compound: C[C@H](C1=CC=C(C=C1)C(=O)NC2=C3C=CNC3=NC=C2)N
Summary of the method: as §1

gandotinib = compound: Cc1cc(Nc2cc(CN3CCOCC3)c3nc(C)c(Cc4ccc(Cl)cc4F)n3n2)n[nH]1 [gandotinib]
Summary of the method: as §1

[4] = compound: Cc1cc(SCc2sc(-c3ccc(C(F)(F)F)cc3)nc2C)ccc1OCC(=O)O
Summary of the method: as §1

doramapimod = compound: Cc1ccc(-n2nc(C(C)(C)C)cc2NC(=O)Nc2ccc(OCCN3CCOCC3)c3ccccc23)cc1 [doramapimod]
Summary of the method: as §1

ispinesib = compound: Cc1ccc(C(=O)N(CCCN)[C@@H](c2nc3cc(Cl)ccc3c(=O)n2Cc2ccccc2)C(C)C)cc1 [ispinesib]
Summary of the method: as §1

duvelisib = compound: C[C@H](Nc1ncnc2nc[nH]c12)c1cc2cccc(Cl)c2c(=O)n1-c1ccccc1 [duvelisib]
Summary of the method: as §1

tozasertib = compound: Cc1cc(Nc2cc(N3CCN(C)CC3)nc(Sc3ccc(NC(=O)C4CC4)cc3)n2)n[nH]1 [tozasertib]
Summary of the method: as §1

Measured: log2 fold change

AIFM2 (UniProt Q9BRQ8)
active: ispinesib 0.207
inactive: [1] 0.039 | crizotinib 0.098 | [2] -0.013 | [3] -0.067 | gandotinib 0.022 | [4] -0.032 | doramapimod 0.08

ALDH18A1 (UniProt P54886)
inactive: [1] -0.281 | crizotinib 0.08 | [2] -0.13 | [3] -0.036 | gandotinib -0.323 | [4] 0.032 | doramapimod -0.146 | ispinesib 0.164

AKAP8L (UniProt Q9ULX6)
inactive: [1] -0.036 | crizotinib -0.049 | [2] -0.066 | [3] -0.1 | gandotinib -0.007 | [4] 0.092 | doramapimod 0.047 | ispinesib -0.102

ADD2 (UniProt P35612)
inactive: [1] 0.021 | crizotinib -0.005 | [2] 0.022 | [3] -0.052 | gandotinib -0.042 | [4] -0.029 | doramapimod 0.016 | ispinesib 0.088

AGPS (UniProt O00116)
inactive: [1] 0.016 | crizotinib -0.038 | [2] 0.048 | [3] -0.053 | gandotinib -0.047 | [4] 0.19 | doramapimod 0.018 | ispinesib 0.015

ADK (UniProt P55263)
inactive: [1] 0.144 | crizotinib 0.275 | [2] 0.034 | [3] -0.105 | gandotinib 0.276 | [4] -0.061 | doramapimod -0.039 | ispinesib 0.112

ALDH6A1 (UniProt Q02252)
inactive: [1] -0.008 | crizotinib 0.042 | [2] 0.109 | [3] 0.009 | gandotinib -0.057 | [4] 0.008 | doramapimod 0.033 | ispinesib -0.042

ALKBH4 (UniProt Q9NXW9)
inactive: [1] 0.082 | crizotinib -0.033 | [2] 0.172 | [3] 0.029 | gandotinib -0.084 | [4] 0.12 | doramapimod 0.037 | ispinesib -0.109

AHSA1 (UniProt O95433)
inactive: [1] 0.035 | crizotinib 0.034 | [2] 0.058 | [3] -0.026 | gandotinib -0.077 | [4] 0.023 | doramapimod -0.029 | ispinesib -0.003

AFDN isoform 5 (UniProt P55196)
inactive: [1] 0.027 | crizotinib -0.154 | [2] 0.04 | [3] -0.094 | gandotinib -0.159 | [4] 0.063 | doramapimod 0.009 | ispinesib -0.002

AMDHD2 (UniProt Q9Y303)
inactive: [1] 0.11 | [3] -0.145 | duvelisib -0.047 | gandotinib 0.027 | tozasertib -0.084 | [4] 0.088

Pulled one by one from above, 2 records:
ADK (UniProt P55263)
inactive: [1] 0.144 | crizotinib 0.275 | [2] 0.034 | [3] -0.105 | gandotinib 0.276 | [4] -0.061 | doramapimod -0.039 | ispinesib 0.112

ALDH18A1 (UniProt P54886)
inactive: [1] -0.281 | crizotinib 0.08 | [2] -0.13 | [3] -0.036 | gandotinib -0.323 | [4] 0.032 | doramapimod -0.146 | ispinesib 0.164

Continuation:

ADH5 (UniProt P11766)
inactive: [1] -0.021 | crizotinib 0.033 | [2] 0.032 | [3] -0.033 | gandotinib -0.014 | [4] -0.031 | doramapimod -0.033 | ispinesib -0.003

ADCK5 (UniProt Q3MIX3)
inactive: [1] -0.029 | crizotinib 0.113 | [2] -0.409 | tozasertib -0.24 | doramapimod 0.086 | ispinesib -0.134

ALG5 (UniProt Q9Y673)
inactive: [1] 0.005 | crizotinib -0.045 | [2] 0.06 | [3] -0.065 | gandotinib -0.084 | [4] 0.045 | doramapimod -0.032 | ispinesib 0.001

AFF4 (UniProt Q9UHB7)
inactive: [1] 0.028 | [2] -0.197 | duvelisib -0.034 | gandotinib -0.193 | [4] 0.122

AMD1 (UniProt P17707)
inactive: [1] -0.058 | crizotinib 0.059 | [2] 0.035 | gandotinib 0.043 | doramapimod -0.07 | ispinesib 0.008

AGO1 (UniProt Q9UL18)
inactive: [1] -0.071 | crizotinib -0.064 | [2] -0.007 | [3] 0.006 | gandotinib 0.094 | [4] 0.002 | doramapimod -0.066 | ispinesib 0.125

AKAP8 (UniProt O43823)
inactive: [1] 0.047 | crizotinib -0.104 | [2] 0.077 | [3] 0.062 | gandotinib -0.036 | [4] 0.061 | doramapimod 0.033 | ispinesib -0.103

ALDH7A1 (UniProt P49419)
inactive: [1] -0.093 | [2] -0.079 | gandotinib 0.033

ADPRH (UniProt P54922)
inactive: [1] 0.123 | crizotinib 0.056 | [2] 0.201 | gandotinib 0.157 | doramapimod -0.071 | ispinesib -0.002

AMZ2 (UniProt Q86W34)
inactive: [1] 0.041 | [2] 0.054 | duvelisib -0.204 | [4] 0.299 | ispinesib -0.168

AKTIP isoform 2 (UniProt Q9H8T0)
inactive: [1] -0.052 | [2] 0.003

ADIPOR1 (UniProt Q96A54)
inactive: [1] 0.004 | crizotinib 0.08 | [2] -0.191 | duvelisib 0.086 | [4] 0.074 | doramapimod -0.154 | ispinesib -0.128

ADGRV1 (UniProt Q8WXG9)
inactive: [1] 0.177 | crizotinib -0.021 | [2] 0.066 | [3] 0.269 | gandotinib -0.591 | doramapimod 0.096

AMN1 (UniProt Q8IY45)
inactive: [1] 0.231 | [2] 0.298 | [3] -0.234 | duvelisib 0.193 | gandotinib 0.076 | tozasertib -0.06 | [4] -0.08

AGPAT4 (UniProt Q9NRZ5)
inactive: [1] 0.003 | [3] 0.002 | duvelisib 0.098 | gandotinib 0.007 | tozasertib -0.013 | [4] 0.083 | ispinesib -0.059

ADCY3 (UniProt O60266)
inactive: [1] 0.185 | crizotinib -0.102 | [3] 0.029 | duvelisib 0.014 | gandotinib -0.034 | tozasertib 0.02 | [4] -0.156 | doramapimod 0.105 | ispinesib -0.119

ADNP (UniProt Q9H2P0)
inactive: [1] 0.002 | crizotinib 0.05 | gandotinib -0.14 | doramapimod 0.001

ALAS1 (UniProt P13196)
inactive: [1] 0.116 | [2] 0.111 | gandotinib -0.074

ADH1A (UniProt P07327)
inactive: [1] -0.242 | crizotinib 0.064 | doramapimod -0.005

AFG1L (UniProt Q8WV93)
inactive: [1] -0.04 | crizotinib -0.027 | [2] 0.074 | [3] 0.001 | [4] -0.019 | doramapimod 0.002 | ispinesib -0.253

ALDH9A1 (UniProt P49189)
active: gandotinib 0.356
inactive: [1] 0.084 | [2] 0.061 | [3] -0.116 | [4] 0.045 | ispinesib -0.243

AKT1 (UniProt P31749)
inactive: [1] -0.013 | crizotinib -0.104 | [2] -0.188 | [3] 0.135 | gandotinib -0.144 | [4] 0.298 | doramapimod -0.005 | ispinesib -0.03
